From patent US12419305B2, “Antimicrobial compositions” (Firmenich SA, priority 2018, dated 2025)
“And” between values parts separate entries of the source, which are not always exact repeats. Equal values may be shown once. The name of at least one read-out is uncertain.

Tests used:
S. aureus ATCC 6538 = assay: BCT test (bacterial contact time), 60 s, log reduction / effect fraction; CI by Compusyn; format: cell-based, Staphylococcus aureus; settings: in 25% EtOH
Description: (§1) E. coli, S. aureus, P. aeruginosa, and S. enterica: Separate suspensions of the E. coli ATCC 10536 strain, S. aureus ATCC 6538 strain, Pseudomonas aeruginosa ATCC 15442 strain, and the Salmonella enterica ATCC 10708 strain were prepared as follows: Stock cultures (stored at −80° C.) were thawed and sub-cultured onto Tryptic Soy Agar (TSA) agar plate media, and incubated at 37° C. for 24 h to obtain single colonies. Single colonies of the primary cultures were streaked onto TSA plates and incubated at 37° for 24 h to generate secondary cultures. Single colonies of secondary cultures picked and used to inoculate into 50 mL of TSB broth. The inoculated TSB broth was incubated at 37° C. at 180 rpm for 18 h. Aliquots (0.5 ml) of the 18 h culture were inoculated into 50 ml of fresh TSB broth, and incubated at 37° C. at 180 rpm for 2-3 hours. When the OD600 nm value of the broth reached 1-2, cells were harvested by centrifugation at 5000 rpm for 10 min, and then resuspended in fresh TSB broth at a concentration of 1-5×10^8 CFU/mL. These suspensions were used as the bacterial suspensions for the BCT test.
(§2) BCT Test: Test compositions at a range of concentrations (either combinations of more than one perfume ingredient, and comparative compositions comprising the single perfume ingredients) were prepared in ethanol. Five replicates of each test composition were added into 96-well microtiter plates (120 μl per well), with row B containing control compositions containing the ethanol solution alone. 120 μl of bacterial cell suspensions at a concentration of approximately 1×10^8 bacteria per mL (as prepared above) were added to each well of the microtiter plate. The bacterial suspensions were incubated with the test solutions for 45, 60, or 120 seconds. Following the incubation of the bacterial suspensions with the test solutions, serial dilutions of the bacterial suspensions were generated (three serial 1:10 dilutions, followed by 17 serial 1:2 dilutions), in multiwell microtiter plates.
(§3) Each plate was sealed and incubated at 37° C. under agitation (180 rpm). After incubation, the turbidity of the wells (OD600 nm) was determined using a Tecan microplate reader. Turbid wells were regarded as positive growth, due to the presence of viable cells. The total number of viable cells (log CFU) for each sample was calculated. And the log reduction for each test composition at the final concentration (dose) was calculated against the control sample of the ethanol solution.
(§4) Determination of Synergy via the Combination Index (CI): The CI was calculated using Compusyn software (ComboSyn, Inc., as created by Dr. Dorothy Chou in 2005), according to the manufacturer's instructions. The concentration of each test composition (combinations of more than one perfume ingredient, and comparative compositions comprising the single perfume ingredients used to generate the combination) and their corresponding effect fraction was entered, and the corresponding CI calculated.
(§5) When the calculated CI values were less than 0.9, the combination of perfume ingredients was regarded as having synergistic effect. When the calculated CI was between 1.0 a 0.9, the combination of perfume ingredients was regarded as having an additive effect. When the calculated CI was greater than 1.0, the combination of perfume ingredients was regarded as having an antagonistic effect.

C. xerosis ATCC 373 = assay: BCT test (bacterial contact time), 120 s, log reduction / effect fraction; CI by Compusyn; format: cell-based, Corynebacterium xerosis; settings: contact 120 s, 25% EtOH
Description: C. xerosis: Suspensions of the C. xerosis ATCC 373 strain were prepared as follows: Stock cultures (stored at −80° C.) were thawed and subcultured onto Tryptic Soy Agar media with Tween 80 (TSA-TW80), and incubated at 37° C. for 48 h. The primary cultures were subcultured onto TSA-TW80 again, to prepare the secondary cultures. Single colonies of the secondary cultures were selected and used to inoculate 30 ml brain heart infusion broth with Tween 80 (BHI-TW80). The inoculated broth was incubated at 37° C. at 180 rpm for 24 h. Aliquots (1 ml) of the 24 h culture were inoculated into 30 ml of fresh BHI-TW80 broth media, and incubated at 37° C. at 180 rpm for 48 h. Aliquots (2-3 ml) of the 48 h culture were inoculated into four 50 ml of fresh BHI-TW80 broth media, and incubated at 37° C. 180 rpm for 4-6 hrs. When the OD 600 nm reached the target value of 1.6, cells were harvested by centrifugation at 5000 rpm for 10 min, and then resuspended in the same fresh BHI-TW80 at a concentration of 10^9 to 10^10 cfu/mL. This suspension was used as the bacterial suspension for the BCT test.
as §2, §3, §4, §5

S. haemolyticus 114126 = assay: as above; format: cell-based, Staphylococcus haemolyticus; settings: contact 120 s, 25% EtOH
Description: S. haemolyticus: Suspensions of the S. haemolyticus 114126 strain, isolated from skin, were prepared as follows: Stock cultures (stored at −80° C.) were thawed and sub-cultured onto TSA-TW80 agar plate media, and incubated at 37° C. for 24 h to obtain single colonies. Single colonies of the primary cultures were streaked onto fresh TSA-TW80 plates and incubated at 37° C. for 24 h to prepare secondary cultures. Single colonies of secondary cultures were picked and used to inoculate 50 mL of BHI-TW80 broth. The inoculated broth was incubated at 37° C. at 180 rpm for 18 h. Aliquots (0.5 ml) of the 18 h culture were inoculated into 50 ml of fresh BHI-TW80 broth, and incubated at 37° C. at 180 rpm for approximately 3 hours. When the OD 600 nm value of the broth reached 1-2, cells were harvested by centrifugation at 5000 rpm for 10 min, and then resuspended in fresh BHI-TW80 broth at a concentration of 1-5×10^8 CFU/mL. This suspension was used as the bacterial suspension for the BCT test.
as §2, §3, §4, §5

E. coli ATCC 10536 = assay: BCT test (bacterial contact time), 45 s, log reduction / effect fraction; CI by Compusyn; format: cell-based, Escherichia coli
Description: as §1, §2, §3, §4, §5

[1] = tested on: Pseudomonas aeruginosa ATCC 15442; assay: BCT test (bacterial contact time), 60 s, log reduction / effect fraction; CI by Compusyn; format: cell-based; settings: BCT 60 s, in 25% EtOH
Description: as §1, §2, §3, §4, §5

[2] = tested on: Salmonella enterica ATCC 10708; assay: as above; format: cell-based; settings: BCT 60 s, in 25% EtOH
Description: as §1, §2, §3, §4, §5

## O=C/C=C/c1ccccc1 [Cinnamic aldehyde]
S. aureus ATCC 6538; Dose 0.25 % w/v, BCT 60 s
  Effect fraction: 0.05
S. aureus ATCC 6538; Dose 0.3 % w/v, BCT 60 s
  Effect fraction: 0.40
S. aureus ATCC 6538; Dose 0.325 % w/v, BCT 60 s
  Effect fraction: 0.59
S. aureus ATCC 6538; Dose 0.35 % w/v, BCT 60 s
  Effect fraction: 0.92
S. aureus ATCC 6538; Dose 0.4 % w/v, BCT 60 s
  Effect fraction: 1.00

## CC(C=O)Cc1ccc2c(c1)OCO2 (stereo not drawn) [Heliopropanal, 3-(1,3-Benzodioxol-5-yl)-2-methylpropanal]
C. xerosis ATCC 373; dose 0.2% w/v
  Effect fraction: 0.01
C. xerosis ATCC 373; dose 0.25% w/v
  Effect fraction: 0.04
C. xerosis ATCC 373; dose 0.3% w/v
  Effect fraction: 0.19
C. xerosis ATCC 373; dose 0.35% w/v
  Effect fraction: 0.25
C. xerosis ATCC 373; dose 0.4% w/v
  Effect fraction: 0.29
S. haemolyticus 114126; dose 0.175% w/v
  Effect fraction: 0.01
S. haemolyticus 114126; dose 0.25% w/v
  Effect fraction: 0.05
S. haemolyticus 114126; dose 0.3% w/v
  Effect fraction: 0.20
S. haemolyticus 114126; dose 0.4% w/v
  Effect fraction: 0.43
S. haemolyticus 114126; dose 0.45% w/v
  Effect fraction: 0.70
E. coli ATCC 10536; dose 0.100 % w/v, 45 s, in 20% EtOH
  Effect fraction: 0.14
E. coli ATCC 10536; dose 0.1% w/v, contact 45 s, 20% EtOH
  Effect fraction: 0.06
E. coli ATCC 10536; dose 0.120 % w/v, 45 s, in 20% EtOH
  Effect fraction: 0.28
E. coli ATCC 10536; dose 0.12% w/v, contact 45 s, 20% EtOH
  Effect fraction: 0.15
E. coli ATCC 10536; dose 0.140 % w/v, 45 s, in 20% EtOH
  Effect fraction: 0.59
E. coli ATCC 10536; dose 0.14% w/v, contact 45 s, 20% EtOH
  Effect fraction: 0.43
E. coli ATCC 10536; dose 0.160 % w/v, 45 s, in 20% EtOH
  Effect fraction: 1.00
E. coli ATCC 10536; dose 0.16% w/v, contact 45 s, 20% EtOH
  Effect fraction: 0.95
E. coli ATCC 10536; dose […] w/v, 45 s, in 20% EtOH
  Effect fraction: 1.00
E. coli ATCC 10536; dose […] w/v, contact 45 s, 20% EtOH
  Effect fraction: 1.00
S. aureus ATCC 6538; Dose 0.15 % w/v, BCT 60 s
  Effect fraction: 0.050
S. aureus ATCC 6538; Dose 0.175 % w/v, BCT 60 s
  Effect fraction: 0.060
S. aureus ATCC 6538; Dose 0.200 % w/v, BCT 60 s
  Effect fraction: 0.180
S. aureus ATCC 6538; Dose 0.225 % w/v, BCT 60 s
  Effect fraction: 0.470
S. aureus ATCC 6538; Dose 0.25 % w/v, BCT 60 s
  Effect fraction: 1.000
S. aureus ATCC 6538; dose 0.150 % w/v, 60 s
  Effect fraction: 0.05
S. aureus ATCC 6538; dose 0.200 % w/v, 60 s
  Effect fraction: 0.16 and 0.24
S. aureus ATCC 6538; dose 0.225 % w/v, 60 s
  Effect fraction: 0.56 and 0.50
S. aureus ATCC 6538; dose 0.250 % w/v, 60 s
  Effect fraction: 0.92 and 1.00
  Log reduction: 7.2
S. aureus ATCC 6538; dose 0.300 % w/v, 60 s
  Effect fraction: 0.96
[1]; Dose 0.175 % w/v
  Effect fraction: 0.65 and 0.37
[1]; Dose 0.2 % w/v
  Effect fraction: 0.97 and 0.51
[1]; Dose 0.25 % w/v
  Effect fraction: 1.00 and 0.92
[2]; Dose 0.05 % w/v
  Effect fraction: −0.01
[2]; Dose 0.1 % w/v
  Effect fraction: 0.10
[2]; Dose 0.120 % w/v
  Effect fraction: 0.38
[2]; Dose 0.130 % w/v
  Effect fraction: 0.51
[2]; Dose 0.14 % w/v
  Effect fraction: 0.71

## O=Cc1ccc2c(c1)OCO2 [Heliotropine, 1,3-benzodioxole-5-carbaldehyde]
E. coli ATCC 10536; dose 0.550 % w/v, 45 s, in 20% EtOH
  Effect fraction: 0.73 and 0.72
E. coli ATCC 10536; dose 0.600 % w/v, 45 s, in 20% EtOH
  Log reduction: 7.4
S. aureus ATCC 6538; dose 0.600 % w/v, 60 s
  Effect fraction: 0.37
S. aureus ATCC 6538; dose 0.700 % w/v, 60 s
  Effect fraction: 0.83
S. aureus ATCC 6538; dose 0.750 % w/v, 60 s
  Effect fraction: 0.97
S. aureus ATCC 6538; dose 1.000 % w/v, 60 s
  Effect fraction: 0.97
[1]; Dose 0.2 % w/v
  Effect fraction: 0.00
[1]; Dose 0.3 % w/v
  Effect fraction: 0.08 and 0.05
  Log reduction: 0.40
[1]; Dose 0.4 % w/v
  Effect fraction: 0.45 and 0.35
[1]; Dose 0.45 % w/v
  Effect fraction: 0.53 and 0.56
  Log reduction: 4.20
[1]; Dose 0.55 % w/v
  Log reduction: 7.5
